Experimental data taken from patent US9777017B2, “Tricyclic fused thiophene derivatives as JAK inhibitors” (Incyte Corporation, priority 2012, dated 2017).
For at least one compound, name, drawing or mass did not settle the structure.

System: human JAK1
Test: In vitro JAK kinase assay (HTRF, phosphorylation of a biotinylated peptide), JAK1
Type: biochemical
Conditions: ratio of IC50s, 1 mM ATP
Procedure: Compounds herein were tested for inhibitory activity of JAK targets according to the following in vitro assay described in Park et al., Analytical Biochemistry 1999, 269, 94-104. The catalytic domains of human JAK1 (a.a. 837-1142), JAK2 (a.a. 828-1132) and JAK3 (a.a. 781-1124) were expressed using baculovirus in insect cells and purified. The catalytic activity of JAK1, JAK2 or JAK3 was assayed by measuring the phosphorylation of a biotinylated peptide. The phosphorylated peptide was detected by homogenous time resolved fluorescence (HTRF). IC50s of compounds were measured for each kinase in the 40 μL reactions that contain the enzyme, ATP and 500 nM peptide in 50 mM Tris (pH 7.8) buffer with 100 mM NaCl, 5 mM DTT, and 0.1 mg/mL (0.01%) BSA. For the 1 mM IC50 measurements, ATP concentration in the reactions was 1 mM. Reactions were carried out at room temperature for 1 hour and then stopped with 20 μL 45 mM EDTA, 300 nM SA-APC, 6 nM Eu-Py20 in assay buffer (Perkin Elmer, Boston, Mass.). Binding to the Europium labeled antibody took place for 40 minutes and HTRF signal was measured on a PHERA star plate reader (BMG, Cary, N.C.). The Example compounds were each tested in the Example A assay (see Table 1 for data for the compounds of the examples as tested by the assay of Example A at 1 mM ATP).

JAK2/JAK1 | Structure (SMILES)
>3 | Cc1nn2cnc3ccsc3c2c1-c1ccc(CC#N)cc1 [Example 46, [4-(8-Methylpyrazolo[1,5-c]thieno[2,3-e]pyrimidin-9-yl)phenyl]acetonitrile]
>5 | Cc1nn2cnc3ccsc3c2c1[C@H]1CC[C@H](CC#N)CC1 [Example 77, [trans-4-(8-Methylpyrazolo[1,5-c]thieno[2,3-e]pyrimidin-9-yl)cyclohexyl]acetonitrile]
